Test results as given in patent US20240101717A1 (BIONECURE THERAPEUTICS, published 2024).

How the values were obtained:
human Trop-2 (human) [1] = experiment: flow cytometry on MDA-MB-468 cells (Trop-2 but no HER2); parental comparator
human Trop-2 (human) [2] = experiment: flow cytometry on MDA-MB-468 cells (Trop-2 but no HER2); comparator as printed

B1: anti-Trop-2 antibody A1,2X4 (antibody, V domains shown)
VH: QVQLQESGPGLVKPSETLSLTCTVSGFSLTSYGVNWIRQPPGKGLEWIGVMWAGGSTNYNSALMSRLTISKDTSKNQFSLKLSSVTAADTAVYYCARDENWDGAWFAYWGQGTLVTVSS
VL: DIVMTQSPDSLAVSLGERATINCKSSQSLLNSGTRKNYLAWYQQKPGQPPKLLISWASSRESGVPDRFSGSGSGTDFTLTISSLQAEDVAVYYCKQSYNLFTFGGGTKVEIK
binding (human Trop-2 (human) [1]): binds | binding (human Trop-2 (human) [2]): binds

These are yes or no findings as the source states them, for the method shown. Binding calls can cover weak binding; strength is not graded here.
